Data taken from PubChem BioAssay AID912, deposited by NCATS (2007).

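Uptake of anthrax lethal toxin into cultured cells, read by FRET (460/530 nm ratio) and reported from the 460 nm channel; the cell line is not named here. Each compound was tested as a concentration series from about 0.0005 to 40 µM. The number is the fitted AC50 of the 460 nm signal alone; lower values mean a more potent effect. A falling signal goes with compounds filed as inhibitors or cytotoxic, a rising one with activators or fluorescent compounds (inferred from the filed classes).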

Values are in µM. Common to all entries: measured here: 460 nm channel. Part of the compounds only, not a random draw; the main read-out is not listed here. A potency from a partial, single-point or poor curve is only a rough figure. The first word of each remark tells which way the curve ran; it can be opposite to the aim of the assay.

- Cc1cc(-c2ccc(N=Nc3ccc4c(S(=O)(=O)O)cc(S(=O)(=O)O)c(N)c4c3O)c(C)c2)ccc1N=Nc1ccc2c(S(=O)(=O)O)cc(S(=O)(=O)O)c(N)c2c1O | AC50 25.12 µM (falling, partial curve)
- CCC(C)N(CC(=O)NCc1ccc(OC)cc1)C(=O)c1csnn1 (centres unmarked) | AC50 5.012 µM (falling, single point)
- Cc1cc(C(C)(C)C)c(O)c(C)c1CC1=NCCN1 | AC50 0.1585 µM (falling, full curve, poor fit)
- Cc1ccsc1C1NC(=O)c2c(sc3c2CCN(C)C3)N1 (centres unmarked) | AC50 10 µM (rising, single point)
- Cn1cccc1C(=O)N1CCC2(CCCN(c3ccccn3)C2)CC1 | AC50 7.943 µM (rising, partial curve)
- NNC(=O)c1ccc(OCc2nc3ccccc3[nH]2)cc1 | AC50 0.7943 µM (falling, single point)
- COc1ccc(C(c2nnnn2C(C)(C)C)N2CCN(c3nc4ccccc4s3)CC2)cc1 (centres unmarked) | AC50 31.62 µM (falling, single point)
- COc1ccc(-c2noc(COc3ccccc3OC)n2)cc1OC | AC50 1.585 µM (falling, partial curve)
- COc1ccc(NC(=O)N2CCCC3(CCN(C(=O)c4cccn4C)CC3)C2)cc1 | AC50 3.981 µM (rising, single point)
- Cn1c(=O)c(-c2cc(F)cc(F)c2)nc2cncnc21 | AC50 12.59 µM (rising, single point)
- COc1ccc(-n2c(O)c(/C=N/n3cnnc3)c3ccccc3c2=O)cc1 | AC50 10 µM (rising, single point)
- O=C1c2oc3ccccc3c(=O)c2C(c2cccnc2)N1Cc1ccco1 (centres unmarked) | AC50 3.981 µM (falling, full curve, poor fit)
- c1ccc(Cn2c(CSc3nnnn3-c3ccccc3)nc3ccccc32)cc1 | AC50 10 µM (rising, partial curve)
- Cn1cnc2cc(NC(=O)c3ccc(Cl)cc3)ccc21 | AC50 2.512 µM (falling, partial curve)
- CN(C)[C@@H]1C(=O)C(C(N)=O)=C(O)[C@]2(O)C(=O)C3=C(O)c4c(O)cccc4[C@@](C)(O)[C@@H]3C[C@@H]12 | AC50 12.59 µM (falling, single point)
- CCN(CC)C(=O)CN1CCN(c2ncccn2)CC1 | AC50 31.62 µM (falling, single point)
- CCCCOC(=O)Nc1cc(OC)c(Cl)cc1OC | AC50 19.95 µM (falling, single point)
- OC(c1ccccc1)(c1ccccc1)C1CCNCC1 | AC50 0.03162 µM (rising, full curve, poor fit)
- C[C@@H](CN1CCC(Cc2ccccc2)CC1)[C@@H](O)c1ccc(O)cc1 | AC50 25.12 µM (falling, single point)
- Fc1ccccc1N1CCN(Cc2c(F)cccc2F)CC1 | AC50 31.62 µM (falling, partial curve)
- Cc1cc2cc(C(c3nnnn3CC3CCCO3)N3CCCc4ccccc43)c(=O)[nH]c2cc1C (centres unmarked) | AC50 12.59 µM (falling, partial curve)
- O=C(c1cc(C(F)(F)F)cc(C(F)(F)F)c1)N1CCC2(CCCN(Cc3ccncc3)C2)CC1 | AC50 3.981 µM (rising, partial curve)
- COc1ccc(OC)c(C2C(C(=O)c3cc4ccccc4o3)=C(O)C(=O)N2c2cc(C)on2)c1 (centres unmarked) | AC50 10 µM (rising, single point)
- COc1ccc(-c2nc(-c3ccc(Br)o3)no2)cc1OC | AC50 3.162 µM (falling, full curve)
- Cc1ccccc1-c1nc(CN2CCC(C(=O)NCCCN3CC(C)CC(C)C3)CC2)c(C)o1 (centres unmarked) | AC50 2.512 µM (falling, partial curve)

Some entries from above, unchanged:

| Compound | AC50 (µM) | remark |
|---|---|---|
| `O=C1c2oc3ccccc3c(=O)c2C(c2cccnc2)N1Cc1ccco1` (centres unmarked) | 3.981 | falling, full curve, poor fit |
| `Cn1cnc2cc(NC(=O)c3ccc(Cl)cc3)ccc21` | 2.512 | falling, partial curve |